# Measurements published in PubChem BioAssay AID2685 (National Center for Advancing Translational Sciences (NCATS), 2010).
# The list shows a part of the results. These are further read-outs of the screen, such as a control signal, another cell line or another target. No call is given for them. Most of these compounds were active or inconclusive in the main read-out, so they are no random draw. The note in brackets gives the kind of curve behind each potency; many fits are weak.
# Experiment: qHTS Assay for Lipid Storage Modulators in Drosophila S3 Cells;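 for cell number change: cells counted by Cell Tracker Red CMTPX staining in the red channel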
# Details: BODIPY lipid droplet fluorescence, 18-24 h; for cell number change: measured here: cell count max response, cells fed with added oleic acid
# How it was run: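 Drosophila S3 cells got compounds at several concentrations plus oleic acid (400 uM solution). Laser-scanning cytometry with 488 nm excitation read lipid droplets at 500-530 nm and cells at 575-640 nm. Percent activity was relative to 20 uM Triacsin C.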
# [1] = measured here: lipid fluorescence (Fed channel) AC50, cells fed with added oleic acid
# [2] = measured here: cell number channel AC50, cells fed with added oleic acid
Compound,cell number change [%],AC50 [1],AC50 [2]
Cc1ccccc1OCc1nc2ccccc2c(=O)n1/N=C/c1c[nH]c2ccccc12,2.48,"0.92 µM [rising, full curve]",
CC(C)c1onc(C(=O)N2CCCCC2)c1[N+](=O)[O-],,"9.2 µM [falling, partial curve, poor fit]",
O=C(c1n[nH]c(=O)c2ccccc12)N1CCN(c2ccccc2Cl)CC1,-12,"9.2 µM [rising, partial curve, poor fit]",
O=C(NCCN1C(=O)S/C(=C\c2ccc(OC(F)F)cc2)C1=O)C1=COCCO1,,,"2.91 µM [rising, partial curve]"
O=C1CCCC/C1=C/Nc1cccc(C(F)(F)F)c1,-32.7,"0.651 µM [falling, full curve]","0.58 µM [falling, full curve]"
CNC(=O)NC(=O)CSc1nnc(-c2ccco2)n1-c1ccccc1,-2.81,,
O=S(=O)(c1ccc(N2CCCC2)nc1)N1CCCC1,,"6.51 µM [rising, partial curve, poor fit]",
Cc1cc(C)cc(NC(=O)CN2C(=O)COc3ccc(S(=O)(=O)N4CCCC4)cc32)c1,-19.1,,
O=C(NCc1ccc(F)cc1)C1CCCN(S(=O)(=O)c2ccc(-n3cnnn3)cc2)C1 (stereo unspecified),23.9,,
Cc1ccccc1OCC(=O)NCCNC(=O)c1cccnc1,-6.67,,
O=C1C2C3C=CC(C3=C3CCCCC3)C2C(=O)N1Cc1ccccc1 (stereo unspecified),,"0.651 µM [falling, single point]","0.13 µM [falling, full curve, poor fit]"
O=C(Cn1nc(C(=O)O)c2ccccc2c1=O)Nc1ccc2c(c1)OCO2,-0.374,,
CC(C)Nc1nc(Oc2ccc(=O)n(-c3ccccc3)n2)nc(N(C)C)n1,-3.04,,
COc1ccc(Cl)cc1S(=O)(=O)N1CCCC(C(=O)N2CCCC2)C1 (stereo unspecified),-3.18,,
CC1CCCCN1C(=O)CSc1nnc(-c2ccco2)o1 (stereo unspecified),13.8,"11.6 µM [rising, single point]",
COc1ccc(S(=O)(=O)N2CCCCC2)cc1C(=O)Nc1cc(C)on1,-16.2,"8.2 µM [falling, partial curve]",
Cc1nn(Cc2ccccc2Cl)c2sc(C(=O)OC3CCCC3=O)cc12 (stereo unspecified),98.6,"6.51 µM [rising, single point]","16.4 µM [rising, partial curve]"
O=C(O/N=C(/c1ccccc1)c1ccncc1)c1cccc(F)c1,17.4,"2.06 µM [rising, single point]",
CCN(C(=O)CSc1nnc(-c2ccco2)n1C)c1c(N)n(Cc2ccccc2)c(=O)[nH]c1=O,-15.9,"0.146 µM [falling, full curve]",
COc1cc2cc(CN(Cc3nnnn3C3CCCC3)C3CCCC3)c(=O)[nH]c2cc1OC,41.1,,"23.1 µM [rising, single point]"
CC1CCN(S(=O)(=O)c2cccc(C(=O)NC3CCCC3)c2)CC1,-14.9,,"0.103 µM [rising, full curve, poor fit]"

# No new results follow: entries from further up.
Compound,cell number change [%],AC50 [1],AC50 [2]
O=C(c1n[nH]c(=O)c2ccccc12)N1CCN(c2ccccc2Cl)CC1,-12,"9.2 µM [rising, partial curve, poor fit]",
O=C(NCCN1C(=O)S/C(=C\c2ccc(OC(F)F)cc2)C1=O)C1=COCCO1,,,"2.91 µM [rising, partial curve]"
O=C1CCCC/C1=C/Nc1cccc(C(F)(F)F)c1,-32.7,"0.651 µM [falling, full curve]","0.58 µM [falling, full curve]"
CNC(=O)NC(=O)CSc1nnc(-c2ccco2)n1-c1ccccc1,-2.81,,
O=S(=O)(c1ccc(N2CCCC2)nc1)N1CCCC1,,"6.51 µM [rising, partial curve, poor fit]",
Cc1cc(C)cc(NC(=O)CN2C(=O)COc3ccc(S(=O)(=O)N4CCCC4)cc32)c1,-19.1,,
O=C(NCc1ccc(F)cc1)C1CCCN(S(=O)(=O)c2ccc(-n3cnnn3)cc2)C1 (stereo unspecified),23.9,,
Cc1ccccc1OCC(=O)NCCNC(=O)c1cccnc1,-6.67,,
O=C1C2C3C=CC(C3=C3CCCCC3)C2C(=O)N1Cc1ccccc1 (stereo unspecified),,"0.651 µM [falling, single point]","0.13 µM [falling, full curve, poor fit]"
O=C(Cn1nc(C(=O)O)c2ccccc2c1=O)Nc1ccc2c(c1)OCO2,-0.374,,
CC(C)Nc1nc(Oc2ccc(=O)n(-c3ccccc3)n2)nc(N(C)C)n1,-3.04,,
COc1ccc(Cl)cc1S(=O)(=O)N1CCCC(C(=O)N2CCCC2)C1 (stereo unspecified),-3.18,,
CC1CCCCN1C(=O)CSc1nnc(-c2ccco2)o1 (stereo unspecified),13.8,"11.6 µM [rising, single point]",
COc1ccc(S(=O)(=O)N2CCCCC2)cc1C(=O)Nc1cc(C)on1,-16.2,"8.2 µM [falling, partial curve]",
Cc1nn(Cc2ccccc2Cl)c2sc(C(=O)OC3CCCC3=O)cc12 (stereo unspecified),98.6,"6.51 µM [rising, single point]","16.4 µM [rising, partial curve]"
O=C(O/N=C(/c1ccccc1)c1ccncc1)c1cccc(F)c1,17.4,"2.06 µM [rising, single point]",
CCN(C(=O)CSc1nnc(-c2ccco2)n1C)c1c(N)n(Cc2ccccc2)c(=O)[nH]c1=O,-15.9,"0.146 µM [falling, full curve]",

# Continued.

Compound,cell number change [%],AC50 [1],AC50 [2]
[O-]/[N+](=C\c1ccc(F)cc1)c1ccccc1,2.38,"0.0058 µM [falling, full curve, poor fit]",
CCC1(CC)NC(=O)N(CC(=O)OCC(=O)Nc2ccc(C(F)(F)F)cc2)C1=O,1.16,"4.61 µM [falling, partial curve]",
O=C1CCC(=O)N1c1ccc(CSc2nnnn2C2CCCCC2)cc1,-6.39,,
Cc1ccc(C(=O)CCC(=O)N2CCC(C(N)=O)CC2)cc1,-10.7,,"6.51 µM [falling, partial curve, poor fit]"
O=C(Nc1ccnn1C1CCN(C/C=C/c2ccccc2)CC1)C1CCCC1,7.41,"0.00517 µM [falling, full curve, poor fit]",
N#CCSc1nc2c(c(=O)n1Cc1ccccc1)C1(CCCC1)Cc1ccccc1-2,38.6,"2.59 µM [rising, partial curve]","0.411 µM [rising, full curve, poor fit]"
Cc1cc2occ(CC(=O)N(C)CC(=O)Nc3ccc(F)cc3)c2cc1C,42,,"7.31 µM [rising, partial curve]"
COc1ccc(OC)c(NC(=O)CCN2CCN(c3ccccc3F)CC2)c1,-1.52,,
C=CCOc1cccc(C2C(C(=O)c3ccco3)=C(O)C(=O)N2Cc2ccncc2)c1 (stereo unspecified),16.7,"16.4 µM [rising, single point]",
Cc1ccc(C(=O)N2CCCC2)cc1S(=O)(=O)N1CCCCC1,20.5,"5.8 µM [rising, single point]",
CC(C)c1ccc2nc(NC(=O)C3CC3)sc2c1,-26.5,"0.82 µM [rising, single point]",
CS(=O)(=O)N(CC(=O)Nc1ccccc1C(=O)N1CCOCC1)c1ccc(Cl)cc1,1.52,"6.51 µM [falling, single point]",
O=C(COc1ccc(Cl)cc1)NN=C1CCCCCCC1,,"1.41 µM [rising, partial curve, poor fit]",
CC(C)OC(=O)c1cc(NC(=S)Nc2ccc([N+](=O)[O-])cc2)cc(C(=O)OC(C)C)c1,-29.1,"20.6 µM [falling, single point]",
Cn1c(=O)c2c(nc(SCC(=O)NCc3ccco3)n2C)n(C)c1=O,20.6,"29.1 µM [falling, single point]",
O=C(Oc1ccc(-c2nnco2)cc1)c1ccc(Br)o1,22.6,,
O=C(COC(=O)CCc1nc2ccccc2c(=O)[nH]1)Nc1ccccc1OC(F)F,-41.6,"18.4 µM [falling, partial curve]","20.6 µM [falling, single point]"
Cc1nn2c(NCCCn3ccnc3)cc(C(C)C)nc2c1-c1ccccc1,-20,,
Cc1ccc(CNC(=O)C2CCCN(S(=O)(=O)c3c(C)[nH]c(=O)[nH]c3=O)C2)cc1 (stereo unspecified),32,"5.8 µM [rising, full curve]","18.4 µM [rising, single point]"
Cc1[nH]nc(-c2ccc(OCc3cnn(-c4ccccc4)c3)cc2O)c1Oc1ccccc1F,24.1,,
Cc1cc(C)nc(Nc2ccc(N3CCCC3)cc2)n1,1.56,,

Compound,cell number change [%],AC50 [1],AC50 [2]
COc1cc(S(=O)(=O)Nc2cccc(C(=O)O)c2)c(OC)cc1Cl,-133,"29.1 µM [falling, single point]","6.51 µM [falling, partial curve]"
CCCSc1nnc(NC(=O)CCc2ccccc2)s1,2.75,"6.51 µM [rising, single point]",
CCOC(=O)CN(C(=O)CSc1nnc(CNc2ccc(F)cc2)o1)c1ccccc1,-2.52,"14.6 µM [rising, single point]",
Cn1c(SCC(=O)N2CC(=O)Nc3ccccc32)nc2ccccc2c1=O,8.4,"0.0058 µM [rising, full curve]","0.0184 µM [rising, full curve, poor fit]"
COc1cc2c(cc1OC)[C@H](C)N(C(=S)Nc1ccc(F)cc1)CC2,29.5,"8.2 µM [rising, partial curve]",
CCOC(=O)/C(=N\Nc1ncnc2ccccc12)c1ccc(C)cc1,-11.8,"6.31 µM [rising, single point]",
COc1ccc(-c2noc(CN(C(=O)c3cccs3)C(C)C)n2)cc1,6.18,"3.26 µM [falling, partial curve, poor fit]",
CC(C)(C)CN1C(=O)C(=O)NC[C@@H]1Cc1ccc(O)cc1,-22.3,"0.58 µM [falling, full curve]",
O=C(Nc1ccc(OC(F)(F)C(F)F)c(NC(=O)c2cccc(F)c2)c1)c1cccc(F)c1,9.94,"29.1 µM [rising, single point]",
O=C(COc1ccc(Cl)cc1Br)NC1CC1,-11.8,"32.6 µM [rising, single point]",
COc1cccc(NC(=O)c2ccc3c(c2)C(=O)N(CC2CCCO2)C3=O)c1 (stereo unspecified),-6.73,"10.3 µM [falling, partial curve, poor fit]",
Cc1ccc(CN(Cc2ccccn2)C(=O)Nc2ccc(C)c(C)c2)cc1,19.7,"18.4 µM [rising, single point]",
Cc1cccc(C)c1NCc1n[nH]c(=S)n1-c1ccccc1,9.55,"6.51 µM [falling, single point]","6.51 µM [falling, single point]"
COc1ccccc1C(=O)N=Nc1c(O)[nH]c2ccc([N+](=O)[O-])cc12,-66.2,,"29.1 µM [falling, single point]"
CCC(=O)Nc1c(-c2ccccc2Cl)c(=O)c2ccccc2n1C,-32.4,"20.6 µM [falling, single point]",
CC(=O)N1c2ccc(S(=O)(=O)N3CCCCC3)cc2CC1C(=O)Nc1cccc(C)c1 (stereo unspecified),8.55,"0.651 µM [rising, single point]",
CCCc1ccc(C(=O)/C=C/N(C)C)cc1,-3.41,"4.11 µM [rising, single point]",
CCOC(=O)c1c(C)[nH]c(C(=O)OCC(=O)c2ccccc2)c1C,48.2,"25.9 µM [rising, partial curve]","29.1 µM [rising, single point]"
COc1cc(/C=N/Nc2nc(C)nc3c2cnn3-c2ccccc2)ccc1O,-10,"0.184 µM [rising, full curve, poor fit]",
CCN(CC)C(=O)C1CCN(CC2CC=CCC2)CC1 (stereo unspecified),-95.2,,"25.9 µM [falling, partial curve]"
